From publication PMC10575874, “Structural insights into the allosteric inhibition of P2X4 receptors” (Nature Communications, 2023)
No constants are given. Whether binding was seen depends on the method and setting. Some results given as binding are weak or reduced against the parent protein; the word gives no strength.

Molecular target: zebrafish P2X4 receptor (residues 9-382) (zebrafish) (UniProt F8W463)
Assay: cryo-EM structure; purified zfP2X4 in PMAL-C8 amphipol, incubated with 50 uM BX430 or 125 uM BAY-1797 for 1 h; C3 symmetry imposed, also processed with C1 symmetry; both purified

B1: zebrafish P2X4 receptor (residues 9-382) (receptor, UniProt F8W463 9-382, looked up)
chain: DSVSQCFFDYYTSKILIIRSKKVGTLNRFTQALVIAYVIGYVCVYNKGYQDTDTVLSSVTTKVKGIALTNTSELGERIWDVADYIIPPQEDGSFFVLTNMIITTNQTQSKCAENPTPASTCTSHRDCKRGFNDARGDGVRTGRCVSYSASVKTCEVLSWCPLEKIVDPPNPPLLADAENFTVLIKNNIRYPKFNFNKRNILPNINSSYLTHCVFSRKTDPDCPIFRLGDIVGEAEEDFQIMAVHGGVMGVQIRWDCDLDMPQSWCVPRYTFRRLDNKDPDNNVAPGYNFRFAKYYKNSDGTETRTLIKGYGIRFDVMVFGQAGKFNIIPTLLNMGAGLALLGLVNVICDWIVLTFMKRKQHYKEQKYTYVDDFG
notes: P2X4 receptor, zebrafish (Danio rerio), GenBank AAH66495.1, residues 9-382 (truncation of the N-terminal 8 and the C-terminal 7 residues); Homotrimer; A C-terminal HRV 3C site stood before TGP and the Twin-Strep-tag; residues of the site may remain after cleavage; also called zfP2X4; source: Sf9 (baculovirus), purified (Strep-Tactin, HRV 3C cleavage, SEC), reconstituted into PMAL-C8 amphipol; not …
binding: binds
